Source: article PMC8795376
No constants are given. Whether binding was seen depends on the method and setting. Binding can be weak; no strength is given. For part of these data: Binding seen in cells or lysates may run through a third protein. For part of these data: Sequences can lack the tags named with a protein.

B1: HaloTag-fused viperin (protein, UniProt Q8WXG1 1-361)
chain: MWVLTPAAFAGKLLSVFRQPLSSLWRSLVPLFCWLRATFWLLATKRRKQQLVLRGPDETKEEEEDPPLPTTPTSVNYHFTRQCNYKCGFCFHTAKTSFVLPLEEAKRGLLLLKEAGMEKINFSGGEPFLQDRGEYLGKLVRFCKVELRLPSVSIVSNGSLIRERWFQNYGEYLDILAISCDSFDEEVNVLIGRGQGKKNHVENLQKLRRWCRDYRVAFKINSVINRFNVEEDMTEQIKALNPVRWKVFQCLLIEGENCGEDALREAERFVIGDEEFERFLERHKEVSCLVPESNQKMKDSYLILDEYMRFLNCRKGRKDPSKSILDVGVEEAIKFSGFDEKMFLKRGGKYIWSKADLKLDW
B2: viperin, recombinant (protein, UniProt Q8WXG1 1-361)
chain: B1 chain

What was measured:
[1] = molecular target: NanoLuc (NL)-conjugated HBc (HBV core protein, derived from HBV genotype C) (hepatitis B virus genotype C); assay: FRET or BRET; NanoBRET in living HepG2 cells expressing NL-HBc and the indicated HaloTag proteins (Fig. 1c, Fig. 3a)
[2] = molecular target: HA-HBc (HBV core protein, genotype C) (hepatitis B virus genotype C); assay: co-IP; HepG2 cells expressing viperin truncated mutants and HA-HBc or GFP-GAL9; lysates precipitated with anti-HA or anti-GFP antibodies, immunoblotting
[3] = molecular target: HBc, recombinant (hepatitis B virus (genotype not stated)); assay: pull-down; in vitro pull-down with recombinant HBc and GAL9 incubated with viperin; anti-HBc antibody; 37 °C, 1 h, Tris buffer pH 7.5; both purified

Row | Binder | binding [1] | binding [2] | binding [3]
1 | B1 | binds | binds | 
2 | B2 |  |  | binds
